19 molecules from PubChem BioAssay AID248 (DTP/NCI, 2004) can be followed below.

The list shows only some results of the screen, not a fair sample: it gathers tests that were run many times, whatever their T/C, doses with no T/C, and many T/C values between a quarter and a half above the control. Other doses and runs of a compound stand elsewhere. T/C: endpoint of the treated group in % of that of the vehicle group. Some entries give survivors of the animals treated and no T/C: the source files T/C as zero there, which appears to mark a toxic dose or a test without result, not a measured value. Some survivor counts are full or nearly so, which does not show that the dose was tolerated: survival well below the control is almost never listed, so the zero probably covers shortened survival too. Survivors were counted at the toxicity check, usually on the fifth day, unless a day is given; later deaths do not show. Schedules are NCI's codes, read here as Q, the interval in days (D) or hours (H), X, the number of doses. Some doses were run more than once; the values are given in rising order. Some schedules carry Z or #; the key to these is not given. Where survival is the endpoint, the PubChem record calls one and a half times the control and up active, and a quarter to a half above the control has no call in these data; cut-offs in other NCI protocols can differ.

For this assay, the system named is L1210 leukemia ip in BDF1 mice, survival T/C. Nature of the assay: NCI In Vivo Anticancer Drug Screen. Data for tumor model L1210 Leukemia (intraperitoneal) in B6D2F1 (BDF1) mice. Particulars: T/C endpoint: mean survival time, higher T/C = longer survival.
Setting [1] is: dose: 200.0 mg/kg/injection, schedule: Q04DX003 (ip), vehicle: saline.
Setting [2] is: dose: 400.0 mg/kg/injection, schedule: Q04DX003 (ip), vehicle: saline.
Where [3] appears, read: dose: 200.0 mg/kg/injection, schedule: Q01DX009 (ip), vehicle: saline.
Where [4] appears, read: dose: 400.0 mg/kg/injection, schedule: Q01DX001 (ip), vehicle: saline.
Setting [5] is: dose: 150.0 mg/kg/injection, schedule: Q01DX001 (ip), vehicle: saline.
[6] abbreviates: dose: 300.0 mg/kg/injection, schedule: Q01DX001 (ip), vehicle: saline.
Where [7] appears, read: dose: 400.0 mg/kg/injection, schedule: Q01DX001 (ip), vehicle: carboxymethylcellulose (CMC).

Take `NC(=O)C(Br)CBr` (stereo unspecified): the survivor count is on record as 6 of 6 (dose: 100.0 mg/kg/injection, schedule: Q01DX009 (ip), vehicle: saline); 0 of 6 under setting [1]; 0 of 6 under setting [2].

For the molecule `CCN(Cc1cc(OC)c(OC)c(OC)c1)C1CCCCC1`, the survivor count under setting [3] was 2 of 3.

Regarding `CC(=O)C1=C(O)c2ccccc2C(=O)C1=O`, the survivor count runs as follows: (dose: 200.0 mg/kg/injection, schedule: Q01DX001 (ip), vehicle: water) 0 of 6; (dose: 400.0 mg/kg/injection, schedule: Q01DX001 (ip), vehicle: water) 0 of 6.

Regarding `CN(CCO)CC1COc2ccccc2O1` (stereo unspecified), the survivor count under setting [4] is listed as 0 of 4.

Take `O=C(Nc1ccc(C2=NCCN2)cc1)c1ccc(C(=O)Nc2ccc(C3=NCCN3)cc2)c([N+](=O)[O-])c1`: the T/C is 136 % of control (dose: 2.0 mg/kg/injection, schedule: Q#A X Z (ip), vehicle: saline); 137 % of control (dose: 2.4 mg/kg/injection, schedule: Q01DX Z (ip), vehicle: methylcellulose (MC)); 141 and 148 % of control (dose: 8.0 mg/kg/injection, schedule: Q01DX009 (ip), vehicle: saline); 134 % of control (dose: 8.0 mg/kg/injection, schedule: Q#A X Z (ip), vehicle: saline); 126 % of control (dose: 14.0 mg/kg/injection, schedule: Q07DX Z (ip), vehicle: saline); 137 % of control (dose: 16.0 mg/kg/injection, schedule: Q01DX Z (ip), vehicle: saline). In addition, for the setting “dose: 32.0 mg/kg/injection, schedule: Q01DX Z (sc), vehicle: steroid suspending solution”, the T/C was 142 % of control. Further, the survivor count was 6 of 6 (dose: 16.0 mg/kg/injection, schedule: Q#A X Z (ip), vehicle: saline); 0 of 6 (dose: 32.0 mg/kg/injection, schedule: Q#A X Z (ip), vehicle: saline); 6 of 6 (dose: 56.0 mg/kg/injection, schedule: Q07DX Z (ip), vehicle: saline); 0 of 6 (dose: 64.0 mg/kg/injection, schedule: Q01DX009 (ip), vehicle: saline); 0 of 6 (dose: 64.0 mg/kg/injection, schedule: Q01DX Z (ip), vehicle: saline); 4 of 6 (dose: 112.0 mg/kg/injection, schedule: Q07DX Z (ip), vehicle: saline). Further, the survivor count runs as follows: (dose: 192.0 mg/kg/injection, schedule: Q03DX Z (ip), vehicle: saline) 0 of 6; (dose: 224.0 mg/kg/injection, schedule: Q07DX Z (ip), vehicle: saline) 0 of 6; (dose: 250.0 mg/kg/injection, schedule: Q01DX Z (sc), vehicle: steroid suspending solution) 0 of 7; (dose: 448.0 mg/kg/injection, schedule: Q07DX Z (ip), vehicle: saline) 0 of 6; (dose: 480.0 mg/kg/injection, schedule: Q01DX Z (oral), vehicle: saline) 2 of 7; (dose: 960.0 mg/kg/injection, schedule: Q01DX Z (oral), vehicle: saline) 0 of 7.

In the case of `Cc1ccccc1NC(=O)NCCBr`, under “dose: 200.0 mg/kg/injection, schedule: Q01DX009 (ip), vehicle: saline with Tween-80”, the survivor count is given as 3 of 3.

For `O=C(C[n+]1ccccc1CO)c1ccc(-c2ccc(C(=O)C[n+]3ccccc3CO)cc2)cc1`, the survivor count was 0 of 6 (dose: 75.0 mg/kg/injection, schedule: Q01DX001 (ip), vehicle: saline); 0 of 6 under setting [5]; 0 of 6 under setting [6].

Consider `[Cu+2].[NH-]c1ccccc1C(=O)O.[NH-]c1ccccc1C(=O)O`, for which the survivor count is, setting by setting: (dose: 100.0 mg/kg/injection, schedule: Q04DX003 (ip), vehicle: saline with Tween-80) 3 of 6; (dose: 200.0 mg/kg/injection, schedule: Q04DX003 (ip), vehicle: saline with Tween-80) 1 of 6; (dose: 400.0 mg/kg/injection, schedule: Q04DX003 (ip), vehicle: saline with Tween-80) 0 of 6.

As for `CCCCN(CCCC)CCCOc1cc(C)ccc1C(C)C`, the survivor count reads like this: (dose: 50.0 mg/kg/injection, schedule: Q04DX003 (ip), vehicle: saline) 3 of 6; (dose: 100.0 mg/kg/injection, schedule: Q04DX003 (ip), vehicle: saline) 2 of 6; under setting [1], 0 of 6; under setting [2], 0 of 6.

Regarding `O=C(OC1(c2ccccc2)CC2CC1c1ccccc12)c1ccc([N+](=O)[O-])cc1` (stereo unspecified), the survivor count under setting [7] is given as 4 of 4.

Take `[Cl][Sn]([c]1ccccc1)([c]1ccccc1)[c]1ccccc1`: the survivor count is 2 of 6 (dose: 2.5 mg/kg/injection, schedule: Q01DX009 (ip), vehicle: Klucel (hydroxypropylcellulose) (HPC)); 0 of 6 and 3 of 6 (dose: 10.0 mg/kg/injection, schedule: Q01DX009 (ip), vehicle: Klucel (hydroxypropylcellulose) (HPC)); 3 of 6 and 6 of 6 (dose: 20.0 mg/kg/injection, schedule: Q04DX003 (ip), vehicle: Klucel (hydroxypropylcellulose) (HPC)); 0 of 6 (dose: 40.0 mg/kg/injection, schedule: Q04DX003 (ip), vehicle: Klucel (hydroxypropylcellulose) (HPC)); 0 of 4 (dose: 80.0 mg/kg/injection, schedule: Q01DX001 (ip), vehicle: saline); 0 of 6 (dose: 80.0 mg/kg/injection, schedule: Q04DX003 (ip), vehicle: Klucel (hydroxypropylcellulose) (HPC)).

Regarding `c1cc2c3c(c1)[I+]c1cccc(c1-3)[I+]2`, the survivor count is recorded as 2 of 4 (dose: 200.0 mg/kg/injection, schedule: Q01DX001 (ip), vehicle: saline) and 0 of 4 under setting [4].

With `c1ccc2c(OCCN3CC3)nccc2c1`, the survivor count under setting [7] was 0 of 6.

For `Cc1cc(=O)[nH]c(N/N=C/c2ccco2)n1`, the survivor count (dose: 400.0 mg/kg/injection, schedule: Q04DX003 (ip), vehicle: Klucel (hydroxypropylcellulose) (HPC)) is on record as 1 of 6.

As to `CCOP(=O)(NC=S)OCC`, the survivor count was 2 of 6 under setting [5] and 0 of 6 under setting [6].

As for `NC(N)=NC1CCCCC1`, the survivor count under setting [2] is given as 2 of 4.

With `O=C(O)c1cc(Cl)c(Cl)cc1Cl`, the survivor count runs as follows: under setting [3], 3 of 6; under setting [2], 0 of 6.

Take `CC1(C)SCC(C(=O)N2CCCC2C(=O)OC2CCCCC2)N1C=O` (stereo unspecified): the survivor count under setting [1] is on record as 3 of 4.

On to `NCCCOc1ccc([N+](=O)[O-])cc1`, for which the survivor count under setting [4] is listed as 0 of 6; the survivor count (dose: 400.0 mg/kg/injection, schedule: Q04DX002 (ip), vehicle: saline) was 0 of 6 and 1 of 3.
